Results reported in article PMC7925594.
No constants are given. Whether binding was seen depends on the method and setting. Binding seen in cells or lysates may run through a third protein. Some results given as binding are weak or reduced against the parent protein; the word gives no strength. For some of these results: Sequences can lack the tags named with a protein.

By UniProt entry, the sequences of proteins in these tests, tags left out.
UniProt O88522: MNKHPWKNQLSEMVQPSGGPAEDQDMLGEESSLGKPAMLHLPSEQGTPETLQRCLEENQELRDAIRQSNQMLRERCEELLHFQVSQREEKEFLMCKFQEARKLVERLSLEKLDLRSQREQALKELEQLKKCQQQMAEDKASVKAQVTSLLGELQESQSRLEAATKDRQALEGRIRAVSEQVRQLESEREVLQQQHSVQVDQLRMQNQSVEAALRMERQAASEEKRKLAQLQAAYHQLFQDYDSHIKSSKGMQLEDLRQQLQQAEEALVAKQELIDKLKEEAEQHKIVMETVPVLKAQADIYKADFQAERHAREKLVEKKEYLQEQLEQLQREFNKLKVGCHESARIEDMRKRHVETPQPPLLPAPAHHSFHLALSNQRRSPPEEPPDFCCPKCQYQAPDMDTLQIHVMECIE
UniProt Q9Y6K9: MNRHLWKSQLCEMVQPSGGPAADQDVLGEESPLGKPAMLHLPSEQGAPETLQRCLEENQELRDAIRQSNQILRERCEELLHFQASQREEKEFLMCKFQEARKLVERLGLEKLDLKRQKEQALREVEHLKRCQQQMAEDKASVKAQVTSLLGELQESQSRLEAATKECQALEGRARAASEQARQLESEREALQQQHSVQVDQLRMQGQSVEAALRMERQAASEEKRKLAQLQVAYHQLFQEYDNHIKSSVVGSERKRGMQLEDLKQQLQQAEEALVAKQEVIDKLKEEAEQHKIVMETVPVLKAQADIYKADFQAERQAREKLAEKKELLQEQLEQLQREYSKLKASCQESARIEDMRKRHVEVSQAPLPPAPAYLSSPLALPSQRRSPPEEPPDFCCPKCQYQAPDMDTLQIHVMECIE

What was measured:
[1] = biological target: T1, HA-tagged N4BP1 (full-length) (not stated (printed residue numbers fit the human protein)) (UniProt O75113); assay: co-IP; HA-N4BP1 or truncation mutants and Flag-NEMO expressed in HEK293T cells; immunoprecipitation with anti-HA, immunoblot with anti-Flag
T1 sequence: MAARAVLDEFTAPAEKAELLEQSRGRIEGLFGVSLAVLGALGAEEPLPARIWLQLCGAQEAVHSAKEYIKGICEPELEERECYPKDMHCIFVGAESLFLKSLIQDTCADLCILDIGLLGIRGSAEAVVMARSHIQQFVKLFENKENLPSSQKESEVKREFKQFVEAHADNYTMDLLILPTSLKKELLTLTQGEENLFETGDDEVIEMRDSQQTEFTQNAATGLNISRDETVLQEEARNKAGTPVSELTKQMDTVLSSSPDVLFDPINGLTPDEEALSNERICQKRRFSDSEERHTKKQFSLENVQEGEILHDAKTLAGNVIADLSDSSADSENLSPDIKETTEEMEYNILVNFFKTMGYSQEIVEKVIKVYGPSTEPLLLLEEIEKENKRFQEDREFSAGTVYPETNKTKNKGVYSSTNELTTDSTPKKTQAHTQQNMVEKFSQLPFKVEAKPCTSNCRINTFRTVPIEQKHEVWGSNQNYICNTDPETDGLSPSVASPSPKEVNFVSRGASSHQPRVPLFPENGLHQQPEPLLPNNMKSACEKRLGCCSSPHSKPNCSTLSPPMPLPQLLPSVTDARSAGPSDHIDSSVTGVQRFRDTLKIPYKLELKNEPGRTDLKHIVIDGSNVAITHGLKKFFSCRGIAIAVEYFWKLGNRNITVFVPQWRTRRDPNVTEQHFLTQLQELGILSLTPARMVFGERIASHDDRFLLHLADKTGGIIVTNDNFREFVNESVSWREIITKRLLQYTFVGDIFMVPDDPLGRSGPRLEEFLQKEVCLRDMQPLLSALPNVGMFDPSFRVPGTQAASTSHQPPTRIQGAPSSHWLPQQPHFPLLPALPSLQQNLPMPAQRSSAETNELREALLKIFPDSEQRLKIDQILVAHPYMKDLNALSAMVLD

[2] = biological target: T2, HA-N4BP1 490-aa cleavage product (truncation mutant ending at D490) (not stated (printed residue numbers fit the human protein)) (UniProt O75113); assay: as above
T2 sequence: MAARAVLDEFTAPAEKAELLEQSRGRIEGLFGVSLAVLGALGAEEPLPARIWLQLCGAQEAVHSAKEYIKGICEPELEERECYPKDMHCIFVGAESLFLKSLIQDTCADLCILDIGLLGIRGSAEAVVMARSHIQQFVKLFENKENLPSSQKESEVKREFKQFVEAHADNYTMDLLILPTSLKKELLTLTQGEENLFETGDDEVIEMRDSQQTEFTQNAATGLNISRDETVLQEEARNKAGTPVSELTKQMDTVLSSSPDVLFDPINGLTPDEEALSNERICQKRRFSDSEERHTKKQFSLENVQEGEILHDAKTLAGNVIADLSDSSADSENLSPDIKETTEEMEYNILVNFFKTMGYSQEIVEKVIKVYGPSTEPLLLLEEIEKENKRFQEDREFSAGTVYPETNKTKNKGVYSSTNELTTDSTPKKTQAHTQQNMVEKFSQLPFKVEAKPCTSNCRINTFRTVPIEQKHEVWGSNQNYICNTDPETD

[3] = biological target: T3, HA-N4BP1 424-aa cleavage product (truncation mutant ending at D424) (not stated (printed residue numbers fit the human protein)) (UniProt O75113); assay: as above
T3 sequence: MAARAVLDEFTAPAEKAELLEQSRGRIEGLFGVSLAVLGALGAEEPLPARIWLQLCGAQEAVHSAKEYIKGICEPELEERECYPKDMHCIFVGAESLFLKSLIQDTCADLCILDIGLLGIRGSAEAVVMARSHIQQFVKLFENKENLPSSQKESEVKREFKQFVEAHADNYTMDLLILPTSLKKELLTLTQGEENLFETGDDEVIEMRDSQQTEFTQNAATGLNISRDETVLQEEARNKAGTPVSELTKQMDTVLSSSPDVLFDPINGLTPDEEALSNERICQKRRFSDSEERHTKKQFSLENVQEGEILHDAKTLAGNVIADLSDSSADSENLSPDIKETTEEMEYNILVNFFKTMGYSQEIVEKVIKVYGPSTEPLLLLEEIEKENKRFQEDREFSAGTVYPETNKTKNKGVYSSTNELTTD

[4] = biological target: NEMO, endogenous in mouse peritoneal macrophages (mouse (endogenous in peritoneal macrophages)) (UniProt O88522); assay: cross-linking; wild-type and N4bp1-/- peritoneal macrophages, stimulated with Pam3CSK4 or not, treated with 2 mM disuccinimidyl suberate (DSS) for 10 min before collection; immunoprecipitation with anti-NEMO (rabbit IgG control), immunoblot with anti-NEMO

| Substance | binding [1] | binding [2] | binding [3] | binding [4] |
| --- | --- | --- | --- | --- |
| Flag-tagged NEMO (from UniProt Q9Y6K9 1-419) | binds | binds | binds | – |
| NEMO, endogenous in mouse peritoneal macrophages (from UniProt O88522 1-412) | – | – | – | binds |
